PubChem BioAssay AID1671195 | Yale University – 2021

Screen: 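Genes whose knockdown alters LDL uptake in liver cancer cells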 (primary screen)
Cells: human Huh7 hepatoma cells
Knock-down reagent: siRNA pool against human genes, 18 nM
Time to read-out: about 2 to 2.5 days of knockdown, then 8 h LDL uptake
Challenge: DiI-labelled LDL at 30 µg/ml for 8 h, in lipoprotein-deficient serum medium
Read-out: 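Per-cell DiI-LDL intensity by automated imaging; well means scaled to the plate median and given as a robust z-score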
Direction: robust z-score: higher = more LDL uptake after knockdown
Hit rule: 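a gene counts as active if at least two replicate z-scores exceed ±2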
The deposit covers about 22,000 reagents; shown is an unselected part. About 1,510 of all reagents (6.9%) count as active. 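Active includes knockdowns raising or lowering LDL uptake; positive z-scores mean more uptake, negative mean less.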

gene knocked down | robust z-score, replicate 1 | robust z-score, replicate 2 | robust z-score, replicate 3 | outcome
DLC1 | 0.934 | 0.898 | 0.651 | inactive
SLC17A5 | -1.07 | -0.829 | -0.752 | inactive
NUDT9 | -0.761 | -0.641 | -0.523 | inactive
TPTE2P3 | 0.0189 | 0.662 | 0.214 | inactive
WNT7B | -1.43 | 0.229 | -0.916 | inactive
PURG | 0.133 | 1.39 | 1.14 | inactive
RMC1 | 2.14 | 1.24 | 2.46 | active
INPP5E | -1.09 | -0.454 | -0.669 | inactive
DHX35 | -1.45 | -2.19 | -2.43 | active
LOC284240 | 2.08 | 2.07 | 2.22 | active
TRA2A | -0.533 | -0.787 | -0.783 | inactive
LOC400577 (retired record) | -0.0413 | 0.144 | 0.184 | inactive
TMEM62 | 1.7 | 2.6 | 1.82 | inactive
CACNA1S | -1.22 | -0.58 | -1.35 | inactive
SENP6 | 0.309 | 2.11 | 0.928 | inactive
ZMYM5 | -0.962 | -0.496 | -1.24 | inactive
SLC7A7 | -0.389 | -0.933 | -0.326 | inactive
ALG12 | 0.245 | 0.0152 | 0.197 | inactive
CAVIN3 | -1.37 | -0.965 | -1.56 | inactive
LOC390511 (retired record) | 0.922 | 0.807 | 1.2 | inactive
SLC14A2-AS1 | -0.513 | -0.972 | -0.893 | inactive
KCNE5 | -0.299 | 0.199 | 1.94 | inactive
SPMIP11 | 0.547 | 1.07 | 0.889 | inactive
VPS26B | 0.0934 | 1.01 | 0.727 | inactive
TMEM184B | 0.856 | 1.7 | -0.165 | inactive
TCN2 | -1.1 | -1.03 | -0.166 | inactive
PCP4 | 0.126 | -1.25 | 0.0414 | inactive
LOC388438 (retired record) | -0.334 | -0.515 | -0.47 | inactive
COA8 | -1.02 | -0.219 | -0.972 | inactive
HTRA2 | -0.503 | -0.612 | -0.288 | inactive
CR1L | -1 | 0.0438 | -0.69 | inactive
LOC389107 (retired record) | -0.216 | -0.0529 | -0.0601 | inactive
SANBR | 0.86 | 0.483 | 0.821 | inactive
HNRNPA3 | -0.316 | -0.231 | -0.752 | inactive
FLJ46838 (retired record) | 0.363 | 0.304 | 0.515 | inactive
DNM1P9 | 1.33 | 1.73 | 1.8 | inactive
OR5B12 | -1.07 | -0.846 | -0.814 | inactive
GON7 | -1.29 | -0.894 | -0.51 | inactive
LMOD3 | -2.44 | -2.94 | -0.895 | active
SPSB3 | -0.31 | -0.809 | -0.901 | inactive
ACTR6 | 1.05 | 0.754 | 0.715 | inactive
LRRC41 | 2.03 | 2.17 | 1.02 | active
HDGFL3 | 2.17 | 0.806 | 1.78 | inactive
RAB44 | -0.851 | -1.26 | -1.21 | inactive
ZNF19 | 0.248 | 0.55 | -0.0562 | inactive
OTOR | 1.07 | 1.59 | -0.126 | inactive

Laid out differently: results already given.
gene knocked down,"robust z-score, replicate 1","robust z-score, replicate 2","robust z-score, replicate 3",outcome
NUDT9,-0.761,-0.641,-0.523,inactive
TPTE2P3,0.0189,0.662,0.214,inactive
WNT7B,-1.43,0.229,-0.916,inactive
PURG,0.133,1.39,1.14,inactive
RMC1,2.14,1.24,2.46,active
INPP5E,-1.09,-0.454,-0.669,inactive
DHX35,-1.45,-2.19,-2.43,active
